According to patent US9063046B1, “Hand-held device with reagents and method for detection and diagnostics” (priority 2012, dated 2015):
Read-outs that look alike come from different tables or passages of the source. Some results were stated once for a whole list of compounds, not compound by compound.

Experiments:
P. aeruginosa = type: cell-based, Pseudomonas aeruginosa
Vaccinia virus (VACV) = type: cell-based; conditions: 30 min at 21° C.

| Molecule | inactivation of vegetative bacteria (P. aeruginosa) (P. aeruginosa) | inactivation of DNA virus (VACV) (Vaccinia virus (VACV)) | inactivation of DNA virus (VACV) (Vaccinia virus (VACV); peracetic acid 0.03%, cupric ascorbate 0.5% in Cu++) |
| --- | --- | --- | --- |
| CC(=O)OO [peracetic acid] | more than 6 log10 | more than 6 log10 | – |
| cupric ascorbate | more than 6 log10 | – | more than 6 log10 |
